# Results are given in words; binding and its absence hold for the method and conditions named. For some of these results: In cells and extracts the contact can be indirect. Some results given as binding are weak or reduced against the parent protein; the word gives no strength. For some of these results: Where a sequence is shown, tags or fusion partners need not be part of it.
# Amino acid sequences for entries named in this document (tags omitted). A change or cut given only in a name is not applied to a line headed by its entry. Residues count along the entry.
# UniProt P56703, residues 22-355: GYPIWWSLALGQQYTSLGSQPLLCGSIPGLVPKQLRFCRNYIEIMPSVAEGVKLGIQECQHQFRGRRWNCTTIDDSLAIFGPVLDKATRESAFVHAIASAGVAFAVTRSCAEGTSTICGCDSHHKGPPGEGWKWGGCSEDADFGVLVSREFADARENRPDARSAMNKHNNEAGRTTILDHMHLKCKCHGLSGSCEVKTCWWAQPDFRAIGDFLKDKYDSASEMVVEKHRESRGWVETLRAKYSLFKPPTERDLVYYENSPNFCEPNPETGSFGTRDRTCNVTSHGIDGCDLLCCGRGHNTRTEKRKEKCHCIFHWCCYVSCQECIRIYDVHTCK
# UniProt Q01974: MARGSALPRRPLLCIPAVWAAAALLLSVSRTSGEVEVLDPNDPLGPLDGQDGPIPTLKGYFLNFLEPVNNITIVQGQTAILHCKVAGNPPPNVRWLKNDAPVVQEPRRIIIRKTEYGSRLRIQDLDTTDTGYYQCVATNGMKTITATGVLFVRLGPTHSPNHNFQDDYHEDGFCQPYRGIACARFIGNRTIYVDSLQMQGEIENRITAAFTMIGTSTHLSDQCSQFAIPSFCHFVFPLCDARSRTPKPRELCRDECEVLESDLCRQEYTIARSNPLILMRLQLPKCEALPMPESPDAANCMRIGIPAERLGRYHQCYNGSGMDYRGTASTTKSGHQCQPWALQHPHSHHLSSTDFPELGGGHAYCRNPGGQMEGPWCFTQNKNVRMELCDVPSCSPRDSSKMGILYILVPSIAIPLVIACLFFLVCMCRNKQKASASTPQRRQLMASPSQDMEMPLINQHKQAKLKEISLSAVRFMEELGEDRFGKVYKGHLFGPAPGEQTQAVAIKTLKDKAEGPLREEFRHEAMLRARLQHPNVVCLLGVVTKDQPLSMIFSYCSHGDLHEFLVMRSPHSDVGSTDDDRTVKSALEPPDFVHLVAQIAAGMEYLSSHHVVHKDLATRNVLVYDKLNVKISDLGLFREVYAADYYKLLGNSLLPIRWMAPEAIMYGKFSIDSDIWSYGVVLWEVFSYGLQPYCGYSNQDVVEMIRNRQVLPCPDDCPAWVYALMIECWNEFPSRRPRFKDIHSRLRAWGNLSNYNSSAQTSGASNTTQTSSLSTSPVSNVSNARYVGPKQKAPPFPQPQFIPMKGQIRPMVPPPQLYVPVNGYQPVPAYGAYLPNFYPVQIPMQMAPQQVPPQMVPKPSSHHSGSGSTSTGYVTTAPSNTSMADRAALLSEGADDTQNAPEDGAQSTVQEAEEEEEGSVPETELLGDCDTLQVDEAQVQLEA
# Tests used:
# [1] = biological target: T1, HA epitope-tagged human Wnt-1 (Wnt-1-HA) (human) (UniProt P04628); assay: co-immunoprecipitation with anti-flag from COS7 lysates, anti-HA immunoblot; panel of ten HA-tagged Wnts
# T1 sequence (looked up): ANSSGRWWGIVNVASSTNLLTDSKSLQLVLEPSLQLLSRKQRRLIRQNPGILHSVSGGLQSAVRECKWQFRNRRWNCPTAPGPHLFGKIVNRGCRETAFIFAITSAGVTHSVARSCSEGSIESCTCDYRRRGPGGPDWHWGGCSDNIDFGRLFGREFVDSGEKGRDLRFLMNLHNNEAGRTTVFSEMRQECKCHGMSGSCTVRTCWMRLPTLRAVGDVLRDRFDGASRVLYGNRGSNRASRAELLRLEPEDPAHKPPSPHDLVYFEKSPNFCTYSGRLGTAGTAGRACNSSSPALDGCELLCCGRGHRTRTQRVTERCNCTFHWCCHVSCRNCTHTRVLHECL
# [2] = biological target: HA epitope-tagged human Wnt-3 (Wnt-3-HA) (human) (UniProt P56703); assay: as above
# [3] = biological target: T2, V5- and his-tagged intracellular domain of human Notch2 (Notch2IC-V5-his) (human) (UniProt Q04721); assay: co-immunoprecipitation with anti-flag from U2OS lysates, anti-his immunoblot (FIG. 16 legend)
# T2 sequence (looked up): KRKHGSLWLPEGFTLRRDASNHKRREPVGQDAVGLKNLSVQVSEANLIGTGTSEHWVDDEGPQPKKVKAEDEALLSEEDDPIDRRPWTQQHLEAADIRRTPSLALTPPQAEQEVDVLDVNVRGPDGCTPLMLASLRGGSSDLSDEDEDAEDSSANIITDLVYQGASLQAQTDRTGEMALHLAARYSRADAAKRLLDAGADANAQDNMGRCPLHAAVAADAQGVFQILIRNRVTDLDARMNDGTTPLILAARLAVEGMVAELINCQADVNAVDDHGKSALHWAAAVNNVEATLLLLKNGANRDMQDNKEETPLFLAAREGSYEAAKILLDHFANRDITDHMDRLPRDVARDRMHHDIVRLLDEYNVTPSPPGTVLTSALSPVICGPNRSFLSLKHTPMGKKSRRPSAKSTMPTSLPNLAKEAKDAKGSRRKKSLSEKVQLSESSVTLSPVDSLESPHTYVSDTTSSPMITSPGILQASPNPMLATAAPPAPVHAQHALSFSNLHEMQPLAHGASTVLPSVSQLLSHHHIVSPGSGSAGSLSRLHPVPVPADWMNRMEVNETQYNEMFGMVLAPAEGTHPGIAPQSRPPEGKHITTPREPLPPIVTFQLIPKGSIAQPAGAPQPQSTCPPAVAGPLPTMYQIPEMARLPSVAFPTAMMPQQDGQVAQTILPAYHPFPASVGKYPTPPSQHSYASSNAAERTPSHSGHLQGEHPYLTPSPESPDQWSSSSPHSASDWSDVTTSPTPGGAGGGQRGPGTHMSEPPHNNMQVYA
# [4] = biological target: T1, HA epitope-tagged human Wnt-1 (Wnt-1-HA) (human); assay: co-immunoprecipitation with anti-flag from COS7 lysates, anti-HA immunoblot (FIG. 10 legend)
# [5] = biological target: HA epitope-tagged human Wnt-3 (Wnt-3-HA) (human) (UniProt P56703); assay: as above
# [6] = biological target: T1, HA epitope-tagged human Wnt-1 (Wnt-1-HA) (human); assay: co-immunoprecipitation with anti-flag from lysates of co-transfected COS-7 or U2OS cells, anti-HA immunoblot
# [7] = biological target: HA epitope-tagged human Wnt-3 (Wnt-3-HA) (human) (UniProt P56703); assay: as above
# [8] = biological target: NOTCH2 protein (UniProt Q04721); assay: listed as specifically immunoprecipitated by Ror2-flag: anti-flag agarose immunoprecipitation from U2OS extracts, gel slices, MS/MS
# [9] = biological target: T2, V5- and his-tagged intracellular domain of human Notch2 (Notch2IC-V5-his) (human); assay: co-immunoprecipitation on M2 flag affinity agarose from lysates of co-transfected U2OS cells, immunoblot for the Notch2IC tags
# [10] = biological target: T1, HA epitope-tagged human Wnt-1 (Wnt-1-HA) (human); assay: co-immunoprecipitation with anti-flag from lysates of co-transfected cells, anti-HA immunoblot
# [11] = biological target: HA epitope-tagged human Wnt-3 (Wnt-3-HA) (human) (UniProt P56703); assay: as above
binding [1],binding [2],binding [3],binding [4],binding [5],binding [6],binding [7],binding [8],binding [9],binding [10],binding [11],Substance
binds,binds,binds,binds,binds,binds,binds,binds,binds,,,Flag-tagged human Ror2 (Ror2-flag) (from UniProt Q01974 34-943) (receptor)
,,,binds,binds,,,,,binds,binds,Flag-tagged Ror2 'kinase-dead' mutant (Ror2KD-flag) (from UniProt Q01974 34-943) (receptor)

# From patent US20050148506A1
